From PubChem BioAssay AID743255 (National Center for Advancing Translational Sciences (NCATS), 2014)
Among all 390,000 compounds or so, about 910 (0.23%) were called active. Inconclusive results, whose numbers are uncertain, are shown with a selection of clear calls. Calls come from the whole dose curve; as a rule, active = well fitted inhibition curve with a large enough effect; inconclusive = small, poorly fitted or top-dose-only effect; inactive = no such curve, though single readings can be large or run the other way. Where the call is inconclusive, the potency comes from a doubtful curve fit.

Sequences of proteins named here, by UniProt entry; tags and fusion partners are left off. A change or cut given only in a name is not applied to a line headed by its entry.
UniProt O94782: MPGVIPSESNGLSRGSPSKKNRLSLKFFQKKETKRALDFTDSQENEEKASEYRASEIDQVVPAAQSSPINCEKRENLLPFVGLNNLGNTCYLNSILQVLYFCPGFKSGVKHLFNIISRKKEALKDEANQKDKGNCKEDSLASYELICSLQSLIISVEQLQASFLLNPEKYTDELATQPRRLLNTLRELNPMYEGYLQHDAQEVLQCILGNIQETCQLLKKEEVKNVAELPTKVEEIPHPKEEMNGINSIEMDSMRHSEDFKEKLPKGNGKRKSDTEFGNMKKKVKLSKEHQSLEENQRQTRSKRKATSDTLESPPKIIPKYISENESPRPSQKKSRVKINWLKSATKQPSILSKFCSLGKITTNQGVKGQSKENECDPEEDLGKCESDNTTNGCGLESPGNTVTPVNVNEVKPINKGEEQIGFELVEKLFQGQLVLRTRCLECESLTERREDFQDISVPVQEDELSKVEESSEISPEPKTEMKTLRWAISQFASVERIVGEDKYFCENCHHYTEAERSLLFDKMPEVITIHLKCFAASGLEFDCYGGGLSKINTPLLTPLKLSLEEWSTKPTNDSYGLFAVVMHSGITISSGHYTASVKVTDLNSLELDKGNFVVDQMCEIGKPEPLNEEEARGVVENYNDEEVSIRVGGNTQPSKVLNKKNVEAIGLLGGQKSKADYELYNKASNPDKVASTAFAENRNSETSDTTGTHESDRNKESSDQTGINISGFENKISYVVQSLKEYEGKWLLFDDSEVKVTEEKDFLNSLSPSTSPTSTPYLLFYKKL

The compounds below were run against Ubiquitin carboxyl-terminal hydrolase 1 (Homo sapiens) (UniProt O94782) (assay: Inhibitors of USP1/UAF1: Primary Screen). Settings: recombinant USP1/UAF1, Ub-Rhodamine cleavage fluorescence; activity change, negative = inhibition: at 57.1 µM (top of the series).
Summary of the method: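 Step one: compound is pinned into 1nM USP1/UAF1 in HEPES pH 7.8 buffer with TCEP. Step two: 15 min room-temperature incubation. Step three: Ub-Rho (150nM final) starts cleavage, tracked by fluorescence over six one-minute reads.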
% is set by controls: 0 for no effect and ±100 for the full control effect; potency is the fitted concentration of half-maximal effect.
Note: nearly all actives have a fitted effect of over 60% in size.

Potency, inactive:
Cc1ccc(C(=O)Nc2nc(-c3ccccn3)cs2)s1
O=C(Nc1ccccc1)/C(=C\c1ccc2c(c1)OCO2)NC(=O)c1ccco1
CCOC(=O)c1c(/N=C/N(C)C)sc(/C=N/Nc2ccccc2)c1-c1ccc(Cl)cc1
CCN1CCc2c(sc(NC(=O)c3ccc(C(=O)c4ccccc4)cc3)c2C(N)=O)C1
COc1ccc(CCNC(=O)Cn2cc(S(=O)(=O)Cc3ccccc3F)c3ccccc32)cc1OC
COc1ccccc1CNc1cc(-c2ccccc2)nc2nncn12
COC(=O)CSc1nc(SC)nc2c1sc1nc(-c3ccco3)c3c(c12)CC(C)(C)OC3
CC(=O)c1c(C)nc2ccccc2c1N
O=C(Nc1ccc2nc(SCC(=O)N3CCCc4ccccc43)sc2c1)c1cccc(F)c1
Cc1ccc(C)c(NC(=O)CCN2C(=O)c3ccccc3Sc3ncccc32)c1
Cc1ccc(Cl)c2c1N[C@@H](c1ccc(C(=O)O)cc1)[C@H]1CC=C[C@@H]21
O=C(COC(=O)Cc1ccccc1F)Nc1ccc(Cl)cn1
Cc1ccc2[nH]c(=O)c3cc(C(=O)N4CCN(c5ccccc5)CC4)sc3c2c1

Potency, active:
COc1ccc2c(c1)Cc1sc(NC(=O)c3ccccc3Br)nc1-2 31.6 µM

Potency, inconclusive:
CCn1c(C)c(C)c2cc(C(=O)NCCc3cc(OC)c(OC)c(OC)c3)ccc21 2.51 µM [inhibitor, full curve, poor fit]
Cc1ccc([N+](=O)[O-])cc1S(=O)(=O)Nc1cccc(S(=O)(=O)NC2=NCCC2)c1 3.98 µM [inhibitor, full curve, poor fit]
CCOC(=O)CSc1nc2nc(Cl)c(Cl)nc2[nH]1 0.398 µM [inhibitor, full curve, poor fit]
Cc1ccc(S(=O)(=O)N2CCC(=O)N(C(COCc3cccc(C(F)(F)F)c3)Cc3ccccc3)CC2)cc1 (configuration not stated) 44.7 µM [inhibitor, partial curve, poor fit]
O=C1CN(S(=O)(=O)c2cccc(C(=O)O)c2)c2ccccc2N1 39.8 µM [inhibitor, single point]
CCOC(=O)Cn1c(=O)oc2cc(S(=O)(=O)Nc3cc(OC)cc(OC)c3)ccc21 7.08 µM [inhibitor, partial curve, poor fit]
COc1ccc(Cn2c(C(=O)O)c(CNCc3cccs3)c3ccc(C)cc32)cc1 5.01 µM [inhibitor, partial curve]
CC(=O)OC(C)=O 28.2 µM [inhibitor, single point]
Cc1cc(OC(C)C(N)=O)nc(-c2ccccc2)n1 (configuration not stated) 7.94 µM [inhibitor, single point]
OC[C@@H](O)[C@@H](O)[C@H](O)[C@H](O)CO 50.1 µM [inhibitor, partial curve, poor fit]
CCc1ccc(NC(=O)Cn2c(=O)c(-c3ccccc3NC(C)=O)nc3ccccc32)cc1 11.2 µM [inhibitor, partial curve]
O=C(NCc1ccc(F)cc1)c1ccc(CS(=O)(=O)c2ccc(Cl)cc2)o1 7.08 µM [inhibitor, full curve]
Oc1c(C(c2ccc(Cl)cc2Cl)N2CCOCC2)sc2nc(-c3ccco3)nn12 (configuration not stated) 5.62 µM [inhibitor, partial curve]
Cc1ccc(NC(=O)CN2C(=O)NC(C)(CC(C)C)C2=O)c(Br)c1 (configuration not stated) 56.2 µM [inhibitor, partial curve, poor fit]
O=C(CSc1nc2ccccc2s1)c1cc2ccccc2o1 28.2 µM [inhibitor, single point]
CS(=O)(=O)NCC(c1ccco1)N1CCN(c2ccccc2)CC1 (configuration not stated) 0.0282 µM [inhibitor, full curve, poor fit]
Cc1ccc(C)c(N2CCN(C(=O)c3ccc(CS(=O)Cc4cccc(Cl)c4)o3)CC2)c1 (configuration not stated) 15.8 µM [inhibitor, partial curve]
Cc1cc(OCc2nnc(SC(C)C(=O)O)n2Cc2ccccc2)ccc1Cl (configuration not stated) 15.8 µM [inhibitor, partial curve]
Cc1cccc(-n2c(C)cc(C=C3C(=O)c4ccccc4C3=O)c2C)c1 31.6 µM [inhibitor, partial curve, poor fit]
Cc1cccc(N(C(=O)c2snc(C(N)=O)c2N)C(C(=O)NCC2CCCO2)c2ccc(N(C)C)cc2)c1C (configuration not stated) 79.4 µM [inhibitor, partial curve, poor fit]
CCOc1c(C)cc(S(=O)(=O)NCc2cccnc2)c(C)c1C 31.6 µM [inhibitor, partial curve]
Cc1cc(C)c2c(=O)cc(C(=O)Nc3sc4c(c3C(=O)NCc3ccccc3)CCCC4)oc2c1 1.26 µM [inhibitor, full curve, poor fit]
O=C(Nc1ccc2nc(-c3ccc4nc[nH]c4c3)[nH]c2c1)c1cccs1 35.5 µM [inhibitor, single point]
Cc1cccc(C(=O)N=c2c(C#N)cc3c(=O)n4cccc(C)c4nc3n2Cc2ccco2)c1 25.1 µM [inhibitor, partial curve]
O=C(Nc1ccc(Cl)cc1)c1nc[nH]c1C(=O)N1CCc2ccccc2C1 178 µM [inhibitor, partial curve]
O=C(Nc1ccc2oc(-c3ccccc3F)nc2c1)c1ccccc1Cl 4.47 µM [inhibitor, partial curve]
O=C(CSc1ncnc2sc3c(c12)CCC3)N1CCOCC1 4.47 µM [inhibitor, single point]
O=C1c2cccc3c(N4CCCCC4)ccc(c23)C(=O)N1c1ccc(O)cc1 39.8 µM [inhibitor, partial curve, poor fit]
CC(C)(C)N1C(=O)[C@H]2[C@@H](c3ccc(Br)cc3)N3C(=O)N(c4cccc(Cl)c4)C(=O)[C@@]3(C)[C@H]2C1=O 70.8 µM [inhibitor, partial curve, poor fit]
Cc1nn2c(c1-c1ccccc1)N=C(c1ccco1)CC2c1ccccc1 (configuration not stated) 50.1 µM [inhibitor, partial curve, poor fit]
CC(=O)NC1=C(Nc2ccc(N(C)C)cc2)C(=O)c2ccccc2C1=O 35.5 µM [inhibitor, partial curve]
C=CCn1c(O)c(CN2CCCCC2)c(C)c(C#N)c1=O 31.6 µM [inhibitor, partial curve]
COc1ccccc1CN(C)CC(=O)Nc1cccc(S(=O)(=O)N2CCCC2)c1 7.08 µM [inhibitor, partial curve, poor fit]
CCN(CC)CCN1C(=O)/C(=C\c2ccc(Cl)c([N+](=O)[O-])c2)SC1=Nc1ccc(OC)cc1 11.2 µM [inhibitor, partial curve, poor fit]
NC(=O)c1nnsc1-c1ccc(-c2snnc2C(N)=O)cc1 44.7 µM [inhibitor, partial curve, poor fit]
COc1ccc(NC(=O)CSc2cn(CC(=O)N3CCOCC3)c3ccccc23)cc1OC 0.794 µM [inhibitor, full curve]
CCOc1ccc(CCN2C(=S)N([C@@H](Cc3ccc(O)cc3)CN3CCCC3CN3C(=S)NC[C@@H]3Cc3ccc(O)cc3)C[C@@H]2CC(C)C)cc1 (some centres not stated) 44.7 µM [inhibitor, partial curve, poor fit]
C[C@H]1CN=C(Nc2ccccc2)N1CCc1ccccc1 2 µM [inhibitor, partial curve, poor fit]
O=C(CSc1nc(-c2ccco2)cc(C(F)(F)F)n1)N1CCc2ccccc2C1 35.5 µM [inhibitor, partial curve]
COc1ccc2[nH]c(=O)c(CN(Cc3cccnc3)S(=O)(=O)c3ccccc3F)cc2c1 4.47 µM [inhibitor, single point]
Cc1cc(C)c(C#N)c(SCC(O)CS(=O)(=O)Cc2ccccc2)n1 (configuration not stated) 1 µM [inhibitor, full curve, poor fit]
COc1cc(/C=C2/C(=O)ON=C2C)ccc1OCc1cccc(F)c1 50.1 µM [inhibitor, partial curve]
CCOC(=O)C(Cc1nc(OCc2ccccc2)cc(OCc2ccccc2)n1)=NO 50.1 µM [inhibitor, partial curve, poor fit]
N#CC(C(O)c1ccccc1)N1CCOCC1 (configuration not stated) 5.01 µM [inhibitor, partial curve]
CC(=O)c1cc(O)c2ccccc2c1O 39.8 µM [inhibitor, partial curve]
CCc1nn(-c2ccccc2)c2nc(-c3ccccc3OC)c3cc(OC)c(OC)cc3c12 1 µM [inhibitor, full curve]

An excerpt from above in order of number of heavy atoms, ascending:
Potency, inconclusive:
C[C@H]1CN=C(Nc2ccccc2)N1CCc1ccccc1 2 µM [inhibitor, partial curve, poor fit]
CS(=O)(=O)NCC(c1ccco1)N1CCN(c2ccccc2)CC1 (configuration not stated) 0.0282 µM [inhibitor, full curve, poor fit]
COc1ccc(Cn2c(C(=O)O)c(CNCc3cccs3)c3ccc(C)cc32)cc1 5.01 µM [inhibitor, partial curve]

Following part.

Activity change, negative = inhibition, inconclusive:
CCCCN(C(=O)CSc1nc(CCC)cc(=O)[nH]1)c1c(N)n(Cc2ccccc2)c(=O)[nH]c1=O -28.6% [inhibitor]
Cc1cccc(N2C(=O)CSC23C(=O)N(Cc2cccc(F)c2)c2ccccc23)c1 (configuration not stated) -34.1% [inhibitor]
